# Measured values from the supplement of paper PMC8728848.
# The list shows a part of the results.
# B1: PX9916F-bfa-443-24-443 (Bacteroides fragilis) (protein)
# chain: DIRPVGSVIPQTAEEYRALLARAYLNVPNDRGLACLRSDEMLVNDNEYDRNSYGDIERWNDVSPFPGTSQFTWSNFYNVLFIANQVIESQKEITEGTPEVVNQLVGEAHLLRAYLHFVLVNLHGQPYTKSGALNSKSIPLKLDTDLEKTLGRNTVEEVYTSILSDIEHARELINKEKWETVFSYRFNVLSVDALQSRVSLYMGAWPKCLESAEAVLAKKSVLVDMNETPLALPNHFESVESITALEQVMGSSVNNAVWVPATFLALYQEGDKRLAAYFAAPDENGNRKSSKGGKREFSCTFRVGELYLNAAEAAANMDKLPHARMRLLELMRKRYTPEAYDKKENAVNVMDKNALISEILNERARELAFEGHRWFDLRRTTRPRMVKVLQGKTYILEQDDPRYTIPIPRDAIAANPGLAN
# Tests used:
# Assay in all cases: glycan array binding signal (z-score within array); higher = stronger binding
# Details in all cases: glycan notation: IUPAC condensed, linker removed
# [1] = molecular target: Neu5Ac(a2-3)Gal(b1-4)GlcNAc(b1-2)[Neu5Ac(a2-3)Gal(b1-4)GlcNAc(b1-4)]Man(a1-3)[GlcNAc(b1-4)][Neu5Ac(a2-3)Gal(b1-4)GlcNAc(b1-4)Man(a1-6)]Man(b1-4)GlcNAc(b1-4)GlcNAc
# How it was run: (§1)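 The Consortium for Functional Glycomics database supplied 3228 glycan arrays, of which those lacking an available protein sequence were dropped. The binding signal, a within-array Z-score, was averaged across arrays of the same protein sequence and across linkers. Negative scores can be read as non-binding.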
# [2] = molecular target: Neu5Ac(a2-3)Gal(b1-4)GlcNAc(b1-2)[Neu5Ac(a2-3)Gal(b1-4)GlcNAc(b1-6)]Man(a1-6)[Neu5Ac(a2-3)Gal(b1-4)GlcNAc(b1-2)Man(a1-3)]Man(b1-4)GlcNAc(b1-4)GlcNAc
# How it was run: as §1
# [3] = molecular target: Neu5Ac(a2-3)Gal(b1-4)GlcNAc(b1-2)[Neu5Ac(a2-3)Gal(b1-4)GlcNAc(b1-6)]Man(a1-6)[Neu5Ac(a2-3)Gal(b1-4)GlcNAc(b1-2)Man(a1-3)][GlcNAc(b1-4)]Man(b1-4)GlcNAc(b1-4)GlcNAc
# How it was run: as §1
# [4] = molecular target: Neu5Ac(a2-3)Gal(b1-4)GlcNAc(b1-3)Gal
# How it was run: as §1
# [5] = molecular target: Neu5Ac(a2-3)Gal(b1-4)GlcNAc(b1-3)Gal(b1-3)GlcNAc
# How it was run: as §1
# [6] = molecular target: Neu5Ac(a2-3)Gal(b1-4)GlcNAc(b1-3)Gal(b1-4)GlcNAc
# How it was run: as §1
# [7] = molecular target: Neu5Ac(a2-3)Gal(b1-4)GlcNAc(b1-3)Gal(b1-4)GlcNAc(b1-2)Man(a1-3)[Neu5Ac(a2-3)Gal(b1-4)GlcNAc(b1-3)Gal(b1-4)GlcNAc(b1-2)Man(a1-6)]Man(b1-4)GlcNAc(b1-4)GlcNAc
# How it was run: as §1
# [8] = molecular target: Neu5Ac(a2-3)Gal(b1-4)GlcNAc(b1-3)Gal(b1-4)GlcNAc(b1-3)Gal(b1-4)GlcNAc
# How it was run: as §1
# [9] = molecular target: Neu5Ac(a2-3)Gal(b1-4)GlcNAc(b1-3)Gal(b1-4)GlcNAc(b1-3)Gal(b1-4)GlcNAc(b1-2)Man(a1-3)[Neu5Ac(a2-3)Gal(b1-4)GlcNAc(b1-3)Gal(b1-4)GlcNAc(b1-3)Gal(b1-4)GlcNAc(b1-2)Man(a1-6)]GalNAc
# How it was run: as §1
# [10] = molecular target: Neu5Ac(a2-3)Gal(b1-4)GlcNAc(b1-3)Gal(b1-4)GlcNAc(b1-3)GalNAc
# How it was run: as §1
# [11] = molecular target: Neu5Ac(a2-3)Gal(b1-4)GlcNAc(b1-3)Gal(b1-4)GlcNAc(b1-3)[Neu5Ac(a2-3)Gal(b1-4)GlcNAc(b1-3)Gal(b1-4)GlcNAc(b1-6)]GalNAc
# How it was run: as §1
# [12] = molecular target: Neu5Ac(a2-3)Gal(b1-4)GlcNAc(b1-3)Gal(b1-4)GlcNAc(b1-6)[Gal(b1-3)]GalNAc
# How it was run: as §1
# [13] = molecular target: Neu5Ac(a2-3)Gal(b1-4)GlcNAc(b1-3)Gal(b1-4)[Fuc(a1-3)]GlcNAc
# How it was run: as §1
# [14] = molecular target: Neu5Ac(a2-3)Gal(b1-4)GlcNAc(b1-3)GalNAc
# How it was run: as §1
# [15] = molecular target: Neu5Ac(a2-3)Gal(b1-4)GlcNAc(b1-3)[Neu5Ac(a2-3)Gal(b1-4)GlcNAc(b1-6)]GalNAc
# How it was run: as §1
# [16] = molecular target: Neu5Ac(a2-3)Gal(b1-4)GlcNAc(b1-6)GalNAc
# How it was run: as §1
# [17] = molecular target: Neu5Ac(a2-3)Gal(b1-4)GlcNAc(b1-6)[Gal(b1-3)]GalNAc
# How it was run: as §1
# [18] = molecular target: Neu5Ac(a2-3)Gal(b1-4)GlcNAc(b1-6)[Neu5Ac(a2-3)Gal(b1-3)]GalNAc
# How it was run: as §1
# [19] = molecular target: Neu5Ac(a2-3)Gal(b1-4)GlcNAc6S
# How it was run: as §1
# [20] = molecular target: Neu5Ac(a2-3)Gal(b1-4)[Fuc(a1-3)]GlcNAc
# How it was run: as §1
# [21] = molecular target: Neu5Ac(a2-3)Gal(b1-4)[Fuc(a1-3)]GlcNAc(b1-2)Man
# How it was run: as §1
# [22] = molecular target: Neu5Ac(a2-3)Gal(b1-4)[Fuc(a1-3)]GlcNAc(b1-3)Gal
# How it was run: as §1
# [23] = molecular target: Neu5Ac(a2-3)Gal(b1-4)[Fuc(a1-3)]GlcNAc(b1-3)Gal(b1-4)GlcNAc
# How it was run: as §1
# [24] = molecular target: Neu5Ac(a2-3)Gal(b1-4)[Fuc(a1-3)]GlcNAc(b1-3)Gal(b1-4)[Fuc(a1-3)]GlcNAc(b1-3)Gal(b1-4)[Fuc(a1-3)]GlcNAc
# How it was run: as §1
# [25] = molecular target: Neu5Ac(a2-3)Gal(b1-4)[Fuc(a1-3)]GlcNAc(b1-3)GalNAc
# How it was run: as §1
# [26] = molecular target: Neu5Ac(a2-3)Gal(b1-4)[Fuc(a1-3)]GlcNAc(b1-6)[Gal(b1-3)]GalNAc
# How it was run: as §1
# [27] = molecular target: Neu5Ac(a2-3)Gal(b1-4)[Fuc(a1-3)]GlcNAc(b1-6)[Neu5Ac(a2-3)Gal(b1-3)]GalNAc
# How it was run: as §1
# [28] = molecular target: Neu5Ac(a2-3)Gal(b1-4)[Fuc(a1-3)]GlcNAc6S
# How it was run: as §1
# [29] = molecular target: Neu5Ac(a2-3)Gal6S(b1-4)GlcNAc
# How it was run: as §1
# [30] = molecular target: Neu5Ac(a2-3)Gal6S(b1-4)[Fuc(a1-3)]GlcNAc
# How it was run: as §1
# Neu5Ac(a2-3)GalNAc = molecular target: Neu5Ac(a2-3)GalNAc
# How it was run: as §1
# [31] = molecular target: Neu5Ac(a2-3)GalNAc(b1-4)GlcNAc
# How it was run: as §1
# [32] = molecular target: Neu5Ac(a2-3)[GalNAc(b1-4)]Gal(b1-4)Glc
# How it was run: as §1
# [33] = molecular target: Neu5Ac(a2-3)[GalNAc(b1-4)]Gal(b1-4)GlcNAc
# How it was run: as §1
# [34] = molecular target: Neu5Ac(a2-3)[GalNAc(b1-4)]Gal(b1-4)GlcNAc(b1-3)GalNAc
# How it was run: as §1
# [35] = molecular target: Neu5Ac(a2-3)[Neu5Ac(a2-6)]GalNAc
# How it was run: as §1
# Neu5Ac(a2-6)Gal = molecular target: Neu5Ac(a2-6)Gal
# How it was run: as §1
binder,measurement,setting,value
B1,glycan array binding signal (z-score),[1],0.089
same,glycan array binding signal (z-score),[2],1
same,glycan array binding signal (z-score),[3],-0.439
same,glycan array binding signal (z-score),[4],-0.63
same,glycan array binding signal (z-score),[5],-0.437
same,glycan array binding signal (z-score),[6],-0.791
same,glycan array binding signal (z-score),[7],1.24
same,glycan array binding signal (z-score),[8],0.171
same,glycan array binding signal (z-score),[9],1.4
same,glycan array binding signal (z-score),[10],-1.36
same,glycan array binding signal (z-score),[11],-0.331
same,glycan array binding signal (z-score),[12],0.396
same,glycan array binding signal (z-score),[13],0.232
same,glycan array binding signal (z-score),[14],0.196
same,glycan array binding signal (z-score),[15],2.32
same,glycan array binding signal (z-score),[16],-0.155
same,glycan array binding signal (z-score),[17],0.222
same,glycan array binding signal (z-score),[18],-0.336
same,glycan array binding signal (z-score),[19],0.134
same,glycan array binding signal (z-score),[20],-1.21
same,glycan array binding signal (z-score),[21],0.198
same,glycan array binding signal (z-score),[22],0.01
same,glycan array binding signal (z-score),[23],-0.581
same,glycan array binding signal (z-score),[24],0.186
same,glycan array binding signal (z-score),[25],0.885
same,glycan array binding signal (z-score),[26],-0.423
same,glycan array binding signal (z-score),[27],0.459
same,glycan array binding signal (z-score),[28],0.193
same,glycan array binding signal (z-score),[29],-1.25
same,glycan array binding signal (z-score),[30],-0.389
same,glycan array binding signal (z-score),Neu5Ac(a2-3)GalNAc,0.679
same,glycan array binding signal (z-score),[31],-0.796
same,glycan array binding signal (z-score),[32],-0.64
same,glycan array binding signal (z-score),[33],-0.676
same,glycan array binding signal (z-score),[34],-0.884
same,glycan array binding signal (z-score),[35],-0.772
same,glycan array binding signal (z-score),Neu5Ac(a2-6)Gal,0.733

# A second format for part of the listing above.
binder | measurement | setting | value
B1 | glycan array binding signal (z-score) | [1] | 0.089
same | glycan array binding signal (z-score) | [2] | 1
same | glycan array binding signal (z-score) | [3] | -0.439
same | glycan array binding signal (z-score) | [4] | -0.63
same | glycan array binding signal (z-score) | [5] | -0.437
same | glycan array binding signal (z-score) | [6] | -0.791
same | glycan array binding signal (z-score) | [7] | 1.24
same | glycan array binding signal (z-score) | [8] | 0.171
same | glycan array binding signal (z-score) | [9] | 1.4
same | glycan array binding signal (z-score) | [10] | -1.36
